In patent publication US10849992B1, “Methods of screening for sortilin binding antagonists” (ALECTOR LLC, priority 2015, dated 2020):
No constants are given. Whether binding was seen depends on the method and setting. Some entries that bind do so weakly or less than the wild type.

What was measured:
[1] = biological target: T1, human sortilin expressed on cells (human, UniProt Q99523 78-831); assay: flow cytometry, blocking of PGRN-DyLight650 binding and endocytosis on sortilin-expressing cells
T1 construct: Transiently transfected HEK293T cells; also called Sortilin1; full-length Sortilin
T1 sequence: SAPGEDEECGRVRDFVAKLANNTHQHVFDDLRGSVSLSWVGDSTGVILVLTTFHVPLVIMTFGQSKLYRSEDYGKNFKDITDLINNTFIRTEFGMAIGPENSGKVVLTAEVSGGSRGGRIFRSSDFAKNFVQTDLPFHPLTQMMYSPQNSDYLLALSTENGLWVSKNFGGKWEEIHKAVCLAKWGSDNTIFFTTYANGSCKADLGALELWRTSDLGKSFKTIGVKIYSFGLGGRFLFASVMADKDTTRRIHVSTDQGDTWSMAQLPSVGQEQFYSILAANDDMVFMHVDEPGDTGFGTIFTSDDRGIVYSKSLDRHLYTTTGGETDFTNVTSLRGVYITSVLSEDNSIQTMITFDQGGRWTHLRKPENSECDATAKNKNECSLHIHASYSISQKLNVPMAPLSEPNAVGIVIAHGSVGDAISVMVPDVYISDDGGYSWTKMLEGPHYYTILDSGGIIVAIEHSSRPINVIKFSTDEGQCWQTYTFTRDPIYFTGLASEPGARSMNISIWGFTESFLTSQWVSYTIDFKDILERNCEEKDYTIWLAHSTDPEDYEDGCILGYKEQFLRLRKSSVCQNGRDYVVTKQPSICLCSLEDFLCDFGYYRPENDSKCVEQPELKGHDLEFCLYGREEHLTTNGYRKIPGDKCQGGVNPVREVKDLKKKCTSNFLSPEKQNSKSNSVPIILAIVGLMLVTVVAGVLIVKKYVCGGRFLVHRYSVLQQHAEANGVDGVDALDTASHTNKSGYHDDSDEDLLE

[2] = biological target: T1, human sortilin expressed on cells; assay: fluorescence microscopy, blocking of 40 nM DyLight-650 PGRN on HEK293T cells transfected with human sortilin
[3] = biological target: T1, human sortilin expressed on cells; assay: flow cytometry, blocking of biotinylated human PGRN on sortilin-expressing HEK293T cells by the sortilin pro-domain peptide

binding [1]: binds
binding [2]: binds
binding [3]: binds
B1: sortilin pro-domain peptide (peptide, UniProt Q99523 34-77, looked up)
peptide: QDRLDAPPPPAAPLPRWSGPIGVSWGLRAAAAGGAFPRGGRWRR
notes: domain: pro-domain; also called Sortilin1 pro-domain peptide; sortilin pro-peptide
